Screen size: about 410,000 compounds; about 18,000 (4.4%) were called active. Inconclusive means that the source gave no clear call. Such entries were picked first, then a sample of the others. Cut-off read from the data, not from the text of the source: active = activity change below about -60%; inconclusive = no clear call, values can overlap the other calls; inactive = above about -39%.
Experiment: qHTS Assay for inhibitors of the human cytomegalovirus (HCMV)
Conditions: HFF cells, HCMV-luciferase reporter, 72 h; at 57.5 µM; active compounds read low
Outline: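 Human foreskin fibroblasts infected with luciferase-reporter HCMV at MOI 1 PFU/cell, compounds at two doses. Luciferase measured 72 h post infection; normalized to buffer-only basal and Salinomycin (10uM) controls.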
% is set by controls: 0 for no effect and ±100 for the full control effect.

Compound | activity change, negative = inhibition
Cc1c(Cl)cccc1NC(=O)C1CCN(c2cnccn2)CC1 | inconclusive: -43%
O=C(CSc1ncnc2sccc12)Nc1ccccc1 | inconclusive: -48.1%
CCc1ccc(C(=O)c2cn(CC(=O)Nc3ccc(OC)c(Cl)c3)c3nc(C)ccc3c2=O)cc1 | inactive: -3.05%
Cc1cc(C)c2c(n1)SCC(=O)N2CC(=O)NCCC1=CCCCC1 | inconclusive: -41%
O=C(COC(=O)C1(c2ccc(F)cc2)CCCC1)N1CCOCC1 | inconclusive: -40.3%
Cn1cc(SCC(=O)Nc2nc3ccccc3s2)c2ccccc21 | inactive: 72.3%
CC(=O)c1cccc(NC(=O)c2ccc(-c3ccccc3[N+](=O)[O-])o2)c1 | inactive: 81.9%
CCCc1cnc(Nc2nc(C(N)Cc3ccc(OC)cc3)cs2)nc1 (stereo not drawn) | inconclusive: -41.4%
COc1ccc(N2CCN(C(=O)c3nn(C)c4c3CSc3ccccc3-4)CC2)cc1 | inconclusive: -50.2%
CCOC(=O)c1cccc(NC(=O)NCc2ccc3c(c2)CCN3C(=O)CC)c1 | inactive: 14.7%
O=C(CCCCCCCCN1C(=O)c2ccccc2C1=O)N1CCOCC1 | inconclusive: -58.8%
CC(C)C(NC(=O)c1ccccc1)C(=O)NCCc1ccccc1 (stereo not drawn) | inconclusive: -53%
COc1ccccc1C(=O)NC(=S)Nc1ccc(Cc2ccncc2)cc1 | active: -76.3%
O=S(=O)(c1ccccc1)N1CCC2(CC1)OCCN2S(=O)(=O)c1cccs1 | inconclusive: -40.4%
CCCN(S(=O)(=O)c1ccc(OCC)cc1)S(=O)(=O)c1cccs1 | inactive: -15.2%
O=C(c1cc2ccccc2cc1O)N1CCCC(C(F)(F)F)C1 (stereo not drawn) | inconclusive: -59.9%
CC(=O)N1CCc2cc(S(=O)(=O)CCC(=O)N3CCN(c4cc(C)ccc4C)CC3)ccc21 | inconclusive: -45%
COc1ccc(C(=O)NNC(=O)C(Cc2ccc(O)cc2)NC(=O)c2ccccc2NC(=O)c2ccc(OC)cc2)cc1 (stereo not drawn) | inconclusive: -43.2%
Cc1cc(Nc2cccc(Cl)c2)nc2ccc(NC(=O)c3ccc(F)cc3Cl)cc12 | inconclusive: -54.4%
O=C(c1ccc2c(=O)n3c(nc2c1)CCCCC3)N1CCN(C(c2ccccc2)c2ccccc2)CC1 | active: -65.5%
CCN(CC(=O)Nc1c(F)cccc1F)C(=O)CCCNC(=O)c1ccc(Cl)cc1 | inactive: -13%
CCCNC(=O)COc1coc(CN2CCN(c3ccccc3OC)CC2)cc1=O | inactive: 7.23%

Compound | activity change, negative = inhibition
C[C@H](NC(=O)c1cc2cc(Cl)ccc2n1C)C(=O)N[C@@H](Cc1ccccc1)C(=O)O | inconclusive: -42.8%
O=C(COc1ccc(F)cc1)c1ccc2c(c1)CCCC2 | inactive: -31.4%
CC(NCC(O)c1ccc([N+](=O)[O-])cc1)C12CC3CC(CC(C3)C1)C2 (stereo not drawn) | inconclusive: -47.9%
CSc1ccc(CCNS(=O)(=O)c2c(C)[nH]c(C)c2C(=O)N2CCCCC2)cc1 | inconclusive: -50.8%
CCOC(=O)c1sc(NC(=O)C2CCCCC2)nc1C | inactive: -4.23%
CCC1(CC)Cc2ccccc2C(=C(C#N)C#N)N1 | inconclusive: -42.9%
Cc1cc(OCC(=O)NNC(=O)c2cccs2)ccc1Br | active: -73.4%
COc1c(Cl)cc(Cl)cc1C(=O)Nc1ccc(NC(=O)c2cccs2)cc1 | inconclusive: -41.5%
COc1ccc(/C=C/C(=O)N2CCN(S(=O)(=O)c3ccccc3Br)CC2)cc1OC | inactive: 4.63%
C=CCNC(=S)NNC(=O)c1ccccc1OCC | inconclusive: -51.7%
Nc1nonc1-n1nnc(C(=O)N/N=C/c2cc(Br)cs2)c1-c1ccccc1 | active: -68.8%
Cc1cccc(N2C(=O)CSC23CCCCC3)c1 | inconclusive: -45.9%
Cc1c(CCC(=O)NCCc2ccccc2F)c(=O)oc2cc(O)ccc12 | inactive: -17.1%
C=CCNC(=S)NNC(=O)c1ccco1 | inconclusive: -40.9%
CCOc1ccc(S(=O)(=O)N(CC(=O)NCCSCc2ccccc2)c2ccccc2)cc1 | inconclusive: -45.3%
COc1ccc(N2C(=O)C3C4C=CC(C4)C3C2=O)c([N+](=O)[O-])c1 (stereo not drawn) | inactive: 30.5%
c1ccc(CCNc2ccnc3cc4ccccc4cc23)cc1 | active: -101%
O=C(c1ccc(NS(=O)(=O)c2ccc3c(c2)OCCO3)cc1)N1CCCCC1 | inconclusive: -53.7%
Cc1ccc(NC(=O)Cn2c(=O)nc(-c3ccccc3F)c3cc(Cl)ccc32)c(Br)c1 | inconclusive: -44.7%
Cc1ccc2cccc(NC(=S)NC(=O)c3c(Br)cnn3C)c2n1 | inactive: 69.4%
CC(C)(C)c1ccc(OCC(=O)Nc2c(C(=O)c3ccc(F)cc3)oc3ccccc23)cc1 | inactive: 12.9%
Cc1ccccc1-c1n[nH]c(=S)n1Cc1ccccc1 | inconclusive: -53.9%

Compound | activity change, negative = inhibition
COc1ccc(CCN2CC(C(=O)Nc3nnc(Cc4ccccc4)s3)CC2=O)cc1OC (stereo not drawn) | inactive: -6.15%
COc1cc(C(=O)NCCSc2c(-c3ccccc3)[nH]c3ccccc23)cc(OC)c1OC | inconclusive: -40.5%
CC(C)Nc1ncnc2ccc(Br)cc12 | active: -95.9%
CCOc1ccccc1C(=O)Nc1nnc(SCC(=O)N2CCOCC2)s1 | inconclusive: -46.3%
COc1cccc(Cn2cnc3c(NS(=O)(=O)c4ccc(Cl)cc4)c(C)c(C)cc32)c1 | inactive: 9.24%
CC(C)(C)OC(=O)NCCCCCNC(=O)c1nc[nH]c1C(=O)N1CCN(c2ccccc2)CC1 | inactive: -28.9%
O=C(c1ccc(CS(=O)c2ccccc2Cl)o1)N1CCN(c2ccccc2F)CC1 (stereo not drawn) | active: -66.9%
CN(C)CCN(Cc1ccc(Cl)cc1)c1ccccn1 | active: -61.5%
COc1ccc(CN(C)C(=O)Cn2cnc3c(NCc4ccccc4)ncnc32)cc1OC | inconclusive: -53.1%
Cc1cc(C(=O)NCc2ccco2)c2ccccc2n1 | inactive: 38.2%
O=C(c1cccc2ccccc12)C1CCCN(C(=O)CCN2CCCO2)C1 (stereo not drawn) | inactive: 10%
O=c1cc(-c2ccccc2)cc(-c2ccccc2)n1CCCO | inactive: -22%
CSc1cccc(NC(=O)c2ccc3c(c2)c(C)c(C)n3Cc2ccc(F)cc2)c1 | inconclusive: 0%
C=CCn1c(SCC(=O)N2CCN(c3ccc(F)cc3)CC2)nnc1-c1ccco1 | inconclusive: -42.7%
CCOC(=O)c1cnc(-n2nc(C)cc2C)nc1NC(C)c1ccccc1 (stereo not drawn) | active: -96.7%
O=C(c1cc(=O)[nH]c2ccccc12)N1CCN(c2ccc([N+](=O)[O-])cc2)CC1 | inconclusive: -54%
C=CCSc1nc2sc(-c3ccccc3)cc2c(=O)n1N | inactive: 0.838%
Cc1ccc(CSc2nc3ccncc3[nH]2)cc1 | inactive: 97.5%
O=C(O)CCC(=O)Nc1ccc(C(=O)OCC(=O)c2ccc(Cl)cc2Cl)cc1 | inactive: -23.7%
Cc1ccccc1C1CC(=O)c2ccccc2C1C (stereo not drawn) | inconclusive: -42.4%
CCOC(=O)C1(CCc2ccccc2)CCN(Cc2cccc3cnccc23)CC1 | inconclusive: -49.9%
COc1cc(-c2cnc3c(NC=O)cc(-c4ccccc4)cn23)cc(OC)c1OC | inconclusive: -58%

Compound | activity change, negative = inhibition
Cn1c(N2CCC(C(N)=O)CC2)nc2c1c(=O)n(Cc1ccc(Br)cc1)c(=O)n2C | inconclusive: -46.8%
CNc1nc2c(c(=O)n(C)c(=O)n2C)n1Cc1ccccc1 | active: -65.2%
Cc1ccc2cc(CN(Cc3ccco3)C(=O)c3ccccc3)c(=O)[nH]c2c1C | inactive: -26.5%
C[C@H](CO)N1C[C@H](C)[C@@H](CN(C)C(=O)Nc2ccnc(N3CCOCC3)c2)OCc2cn(nn2)CCCC1=O | inactive: 2.57%
Cc1ccc(NC(=O)CCNC(=O)c2ccc(Br)cc2)cc1S(=O)(=O)N1CCCCCC1 | inactive: -34.2%
O=C(Nc1ccc2c(c1)CCC2)C1COc2ccccc2O1 (stereo not drawn) | inactive: 124%
COc1ccc(NC(=O)C2Cc3c(-c4ccc5c(c4)OCO5)ccnc3O2)cc1OC (stereo not drawn) | active: -89.6%
Cc1ccc(CN2CCN(Cc3ccc(-n4cccn4)cc3)CC2CCO)cc1 (stereo not drawn) | inconclusive: -47.7%
CCc1ccc(N(C(=O)c2csnn2)C(C(=O)NC(C)(C)CC)c2cccnc2)cc1 (stereo not drawn) | inactive: 15%
Cc1nonc1-c1nc(-c2nonc2N)n[nH]1 | inconclusive: -43.5%
O=C(c1ccc2c(Cl)c3c(nc2c1)CCCC3)N1CCC(N2CCCCC2)CC1 | active: -60.3%
Cn1cnnc1SCC(=O)c1ccc(OC(F)F)cc1 | active: -78%
CC(=O)Nc1ccc2c(c1)CCc1ccccc1-2 | inactive: -9.32%
COc1ccc(/C=C/c2onc(C)c2S(=O)(=O)N2CCC(C(=O)N3CCC(C)CC3)CC2)cc1 | inconclusive: -54.2%
Cc1ccc(/C=N\NC(=O)c2ccc(Cn3cc(Br)c([N+](=O)[O-])n3)o2)o1 | inconclusive: -44.5%
COc1ccc(/C=C/C(=O)OCn2c(SC)nnc(C)c2=O)cc1OC | inactive: 0%
O=C(CNCCc1ccccc1)Nc1ccc(C(=O)N2CCCCC2)cc1 | inconclusive: -44.7%
O=C(c1ccc2c(c1)OCO2)N1CCC2(CC1)Oc1ccc(Cl)cc1C(=O)C21CC(c2ccccc2)=NO1 (stereo not drawn) | inconclusive: -50.9%
CCCNC(=O)c1ccccc1NC(=O)COc1cccc2c1OC(C)(C)C2 | inactive: -20.2%
CC(=O)c1cccc(N(CC(=O)Nc2ccc(F)cc2)S(C)(=O)=O)c1 | inactive: -7.26%
C#CCSc1nc(=O)c2cccnc2n1-c1ccc(C)cc1 | inconclusive: -50.4%
Cc1cccc(OCC(=O)N(Cc2cccc(Cl)c2)Cc2ccco2)c1C | inactive: -8.34%

Some of these compounds in order of number of heavy atoms, smallest number first.
Compound | activity change, negative = inhibition
CC(=O)c1cccc(N(CC(=O)Nc2ccc(F)cc2)S(C)(=O)=O)c1 | inactive: -7.26%
O=C(CCCCCCCCN1C(=O)c2ccccc2C1=O)N1CCOCC1 | inconclusive: -58.8%
CCc1ccc(C(=O)c2cn(CC(=O)Nc3ccc(OC)c(Cl)c3)c3nc(C)ccc3c2=O)cc1 | inactive: -3.05%
O=C(c1ccc2c(c1)OCO2)N1CCC2(CC1)Oc1ccc(Cl)cc1C(=O)C21CC(c2ccccc2)=NO1 (stereo not drawn) | inconclusive: -50.9%
